In the supplement of paper PMC4604168 (melanoma cell lines):
The list shows a part of the results. Single values are uncertain, as repeats are few or missing.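 Cells were imaged in 1,536-well plates, and nuclei stained with an antibody against cleaved PARP were counted against all DNA-stained nuclei to give the apoptosis fraction. Screening doses were chosen to leave most cells alive, and resting and induced cleaved-PARP levels differ strongly between cell lines.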

Legend:
Test in all cases: cleaved PARP positive nuclei fraction relative to DMSO control; melanoma cells; higher = more apoptosis
Conditions in all cases: library dose: low library concentration; 72 h
501Mel = system: 501Mel
A101D = system: A101D
A2058 = system: A2058
A375 = system: A375
C32 = system: C32
CBRC013 = system: CBRC013 (line from a melanoma biopsy)
CBRC014 = system: CBRC014 (line from a melanoma biopsy)
CBRC016 = system: CBRC016 (line from a melanoma biopsy)
CBRC017 = system: CBRC017 (line from a melanoma biopsy)
CBRC034 = system: CBRC034 (line from a melanoma biopsy)
COLO792 = system: COLO792
COLO800 = system: COLO800
COLO829 = system: COLO829
G361 = system: G361
IPC-298 = system: IPC-298
IST-MEL1 = system: IST-MEL1
LB2518-MEL = system: LB2518-MEL
LOXIMVI = system: LOXIMVI

Row | SMILES | cleaved PARP positive nuclei fraction (501Mel) | cleaved PARP positive nuclei fraction (A101D) | cleaved PARP positive nuclei fraction (A2058) | cleaved PARP positive nuclei fraction (A375) | cleaved PARP positive nuclei fraction (C32) | cleaved PARP positive nuclei fraction (CBRC013) | cleaved PARP positive nuclei fraction (CBRC014) | cleaved PARP positive nuclei fraction (CBRC016) | cleaved PARP positive nuclei fraction (CBRC017) | cleaved PARP positive nuclei fraction (CBRC034) | cleaved PARP positive nuclei fraction (COLO792) | cleaved PARP positive nuclei fraction (COLO800) | cleaved PARP positive nuclei fraction (COLO829) | cleaved PARP positive nuclei fraction (G361) | cleaved PARP positive nuclei fraction (IPC-298) | cleaved PARP positive nuclei fraction (IST-MEL1) | cleaved PARP positive nuclei fraction (LB2518-MEL) | cleaved PARP positive nuclei fraction (LOXIMVI)
1 | CCc1ccc(CCOc2ccc(CC3SC(=O)NC3=O)cc2)nc1 (stereo not given) [pioglitazone] + c1cc(-c2cnn3cc(-c4ccc(OCCN5CCCCC5)cc4)cnc23)ccn1 [Dorsomorphin] (first compound 2 µM, partner dose 0.4 µM) | 192% | 94.9% | 62.2% | 137% | 107% | 30% | 82.4% | 66.1% | 68.8% | 73.9% | 256% | 49.5% | 84.8% | 94.3% | 86.4% | 21.6% | 225% | 93.7%
2 | N#Cc1c(O)c2c(-c3ccc(-c4ccccc4O)cc3)csc2[nH]c1=O + CC(C)CCN1c2nc(Nc3cc(F)c(O)c(F)c3)ncc2N(C)C(=O)C1C [BID1870] (first compound 2 µM, partner dose 0.2 µM) | 42.3% | 125% | 171% | 178% | 227% | 41% | 110% | 66.9% | 85% | 46.6% | 169% | 92.6% | 45.1% | 85.1% | 106% | 29.1% | 48.6% | 41.5%
3 | COc1cc2c(Oc3ccc4[nH]c(C)cc4c3F)ncnc2cc1OCCCN1CCCC1 [cediranib] + Oc1cc(-c2nc(-c3ccccc3)[nH]c2-c2ccncc2)ccc1Cl [L779450] (first compound 0.4 µM, partner dose 0.2 µM) | 196% | 83.7% | 168% | 186% | 247% | 202% | 132% | 36.8% | 58.6% | 81.2% | 49.5% | 63.2% | 70.6% | 132% | 38.2% | 58.9% | 87% | 50.1%
4 | COc1ccc(COc2ccc(Cc3cnc(N)nc3N)cc2OC)cc1 + Cn1cc(/C=C2\C(=O)Nc3cccnc32)c2ccccc21 [GW441756] (first compound 1 µM, partner dose 0.4 µM) | 78.2% | 105% | 96.9% | 112% | 74.9% | 128% | 106% | 56.8% | 93.8% | 79.7% | 179% | 37.2% | 176% | 94.2% | 124% | 112% | 73.1% | 28%
5 | COc1ccc(-c2ccc3c(N4CCOCC4)nc(N4C[C@@H](C)O[C@@H](C)C4)nc3n2)cc1CO + COc1ccc(COc2ccc(Cc3cnc(N)nc3N)cc2OC)cc1 [GW2580] (first compound 0.02 µM, partner dose 1 µM) | 68.1% | 114% | 132% | 78.7% | 127% | 62.3% | 180% | 43.6% | 81.8% | 91.9% | 50.8% | 76.5% | 85.6% | 90.6% | 69.6% | 127% | 164% | 107%
6 | N#Cc1c(O)c2c(-c3ccc(-c4ccccc4O)cc3)csc2[nH]c1=O + Cc1cc([N+](=O)[O-])ccc1NS(=O)(=O)c1cc(Cl)ccc1Cl [FH535] (first compound 2 µM, partner dose 1 µM) | 82.3% | 162% | 40% | 76.1% | 54.6% | 613% | 329% | 1180% | 665% | 373% | 88.2% | 115% | 110% | 40.9% | 41.2% | 51.8% | 43.1% | 35.5%
7 | c1cc(-c2cnn3cc(-c4ccc(OCCN5CCCCC5)cc4)cnc23)ccn1 [Dorsomorphin] + Cn1cc(/C=C2\C(=O)Nc3cccnc32)c2ccccc21 [GW441756] (first compound 0.4 µM, partner dose 0.4 µM) | 87.5% | 39.2% | 38.8% | 360% | 109% | 54.1% | 116% | 64.2% | 90.2% | 129% | 106% | 72.8% | 60.1% | 123% | 115% | 43.8% | 257% | 209%
8 | COc1ccc(-c2ccc3c(N4CCOCC4)nc(N4C[C@@H](C)O[C@@H](C)C4)nc3n2)cc1CO + CCCCCCCCCCCC1=C(O)C(=O)C=C(O)C1=O [Embelin] (first compound 0.02 µM, partner dose 1.2 µM) | 152% | 74.1% | 35.1% | 23.6% | 224% | 152% | 220% | 46.3% | 76.7% | 46.3% | 69.9% | 87.9% | 90.2% | 35.3% | 92.5% | 56.6% | 162% | 83.6%
9 | COC(=O)c1sccc1S(=O)(=O)Nc1ccc(Nc2ccccc2)cc1OC + O=c1cc(-c2cccc3c2Sc2ccccc2S3)oc(N2CCOCC2)c1 [KU55933] (first compound 1 µM, partner dose 1 µM) | 102% | 105% | 67% | 72.6% | 152% | 46.1% | 96.9% | 37.6% | 130% | 84.5% | 142% | 91.4% | 28% | 86% | 114% | 130% | 66.1% | 53%
10 | N#Cc1c(O)c2c(-c3ccc(-c4ccccc4O)cc3)csc2[nH]c1=O + COc1ccc(-c2ccc3c(N4CCOCC4)nc(N4C[C@@H](C)O[C@@H](C)C4)nc3n2)cc1CO [KU0063794] (first compound 2 µM, partner dose 0.02 µM) | 148% | 35.5% | 91.7% | 138% | 175% | 144% | 188% | 67.3% | 165% | 76.8% | 172% | 140% | 80.3% | 64.9% | 42.2% | 104% | 80.2% | 55.7%

Just cleaved PARP positive nuclei fraction (CBRC013) (two entries from above):
Row	SMILES	cleaved PARP positive nuclei fraction (CBRC013)
2	N#Cc1c(O)c2c(-c3ccc(-c4ccccc4O)cc3)csc2[nH]c1=O + CC(C)CCN1c2nc(Nc3cc(F)c(O)c(F)c3)ncc2N(C)C(=O)C1C [BID1870] (first compound 2 µM, partner dose 0.2 µM)	41%
4	COc1ccc(COc2ccc(Cc3cnc(N)nc3N)cc2OC)cc1 + Cn1cc(/C=C2\C(=O)Nc3cccnc32)c2ccccc21 [GW441756] (first compound 1 µM, partner dose 0.4 µM)	128%
